Test results reported in US20100048677A1.

Sequences of proteins named here, by UniProt entry; tags and fusion partners are left off. A change or cut given only in a name is not applied to a line headed by its entry.
UniProt P08514: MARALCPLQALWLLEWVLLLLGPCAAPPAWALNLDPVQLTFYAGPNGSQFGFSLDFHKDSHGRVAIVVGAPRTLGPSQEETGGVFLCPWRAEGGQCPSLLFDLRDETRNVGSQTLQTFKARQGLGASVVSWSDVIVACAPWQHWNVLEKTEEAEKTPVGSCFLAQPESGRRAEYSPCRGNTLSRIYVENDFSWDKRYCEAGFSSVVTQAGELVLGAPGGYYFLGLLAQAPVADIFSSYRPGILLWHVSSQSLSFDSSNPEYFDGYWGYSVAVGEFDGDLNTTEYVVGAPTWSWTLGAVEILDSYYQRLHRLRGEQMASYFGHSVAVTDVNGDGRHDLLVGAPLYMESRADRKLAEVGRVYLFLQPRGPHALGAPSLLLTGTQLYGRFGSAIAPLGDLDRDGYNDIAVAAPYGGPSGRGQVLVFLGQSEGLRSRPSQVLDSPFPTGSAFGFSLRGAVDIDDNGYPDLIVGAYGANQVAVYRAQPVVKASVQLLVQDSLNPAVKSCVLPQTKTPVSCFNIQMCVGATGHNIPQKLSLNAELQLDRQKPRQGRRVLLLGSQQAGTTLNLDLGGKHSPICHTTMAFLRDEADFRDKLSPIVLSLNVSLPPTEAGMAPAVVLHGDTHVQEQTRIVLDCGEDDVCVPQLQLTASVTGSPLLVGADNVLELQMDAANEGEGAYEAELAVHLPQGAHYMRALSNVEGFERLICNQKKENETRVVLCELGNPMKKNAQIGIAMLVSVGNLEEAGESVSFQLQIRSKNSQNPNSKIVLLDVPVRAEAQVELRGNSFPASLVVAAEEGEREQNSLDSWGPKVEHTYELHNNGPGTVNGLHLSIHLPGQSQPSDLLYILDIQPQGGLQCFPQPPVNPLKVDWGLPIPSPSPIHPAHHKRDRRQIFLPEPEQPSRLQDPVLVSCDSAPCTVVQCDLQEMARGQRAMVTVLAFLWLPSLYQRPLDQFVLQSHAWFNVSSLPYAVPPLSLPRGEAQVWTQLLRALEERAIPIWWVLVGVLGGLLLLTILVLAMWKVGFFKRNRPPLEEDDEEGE

Target: αIIbβ3 (human) (UniProt P08514)
Assay: His-tag pull-down or photo-crosslinking and immunoprecipitation, mass spectrometry

B1: DNAJC10 (DNAJ (HSP40) HOMOLOG, SUBFAMILY C, MEMBER 10) (protein)
chain: DQDFYSLLGVSKTASSREIRQAFKKLALKLHPDKNPNNPNAHGDFLKINRAYEVLKDEDLRKKYDKYGEKGLEDNQGGQYESWNYYRYDFGIYDDDPEIITLERREFDAAVNSGELWFVNFYSPGCSHCHDLAPTWRDFAKEVDGLLRIGAVNCGDDRMLCRMKGVNSYPSLFIFRSGMAPVKYHGDRSKESLVSFAMQHVRSTVTELWTGNFVNSIQTAFAAGIGWLITFCSKGGDCLTSQTRLRLSGMLDGLVNVGWMDCATQDNLCKSLDITTSTTAYFPPGATLNNKEKNSILFLNSLDAKEIYLEVIHNLPDFELLSANTLEDRLAHHRWLLFFHFGKNENSNDPELKKLKTLLKNDHIQVGRFDCSSAPDICSNLYVFQPSLAVFKGQGTKEYEIHHGKKILYDILAFAKESVNSHVTTLGPQNFPANDKEPWLVDFFAPWCPPCRALLPELRRASNLLYGQLKFGTLDCTVHEGLCNMYNIQAYPTTVVFNQSNIHEYEGHHSAEQILEFIEDLMNPSVVSLTPTTFNELVTQRKHNEVWMVDFYSPWCHPCQVLMPEWKRMARTLTGLINVGSIDCQQYHSFCAQENVQRYPEIRFFPPKSNKAYHYHSYNGWNRDAYSLRIWGLGFLPQVSTDLTPQTFSEKVLQGKNHWVIDFYAPWCGPCQNFAPEFELLARMIKGKVKAGKVDCQAYAQTCQKAGIRAYPTVKFYFYERAKRNFQEEQINTRDAKAIAALISEKLETLRNQGKRNKDEL
binding: binds

Results are given in words; binding and its absence hold for the method and conditions named. In cells and extracts the contact can be indirect. A yes stands for co-enrichment or nearness to the bait. Other partners may have been found.
